According to PMC12646458, “Structural characterization of the YbbAP-TesA ABC transporter identifies it as a lipid hydrolase complex that extracts hydrophobic compounds from the bacterial inner membrane” (PLOS Biology, 2025):
Converted amounts (≈) assume the structure as drawn.

Experiments:
[1] = test system: T1, Escherichia coli BW25113; assay: microbe, parasite or virus in culture; parameters: antibiotic susceptibility testing of E. coli strains, MIC, median of replicates; settings: read-out: Median MIC
T1 construct: BW25113
Excerpt: (§1) Supplementary file pbio.3003427.s003.docx: S3 Table Antibiotic susceptibility testing for TesA and YbbP knockout strains. (DOCX)

[2] = test system: T2, Escherichia coli C43(DE3); assay: microbe, parasite or virus in culture; parameters: antibiotic susceptibility testing of E. coli strains, MIC, median of replicates; settings: D=+IPTG +Kan, median MIC, empty pET28, IPTG and kanamycin present
T2 construct: C43(DE3) carrying empty pET28 vector
Excerpt: as §1

Question: What does the source list for `CC1=C(C(=O)O)N2C(=O)[C@@H](NC(=O)[C@H](N)c3ccccc3)[C@H]2SC1` [Cephalexin]?
Answer: MIC [1]: 16 µg/mL (≈ 46.1 µM); MIC [2]: 8 µg/mL (≈ 23 µM)
